Test results reported in paper PMC8050843.
Like-named read-outs stand apart in the source and are kept apart here. These are yes or no findings as the source states them, for the method shown. Binding seen in cells or lysates may run through a third protein. Here binding means that the protein was enriched with, or labelled near, the bait; the list need not be complete. Sequences can lack the tags named with a protein. Blank lines part the entries; values can stand above or below the molecule they belong to.

By UniProt entry, the sequences of proteins in these tests, tags left out. Where a name states a change or a piece, a line headed by the entry shows the natural chain unless it says otherwise. Chains listed by the source or under a name are the forms on record and can include a tag or linker.
UniProt P40460: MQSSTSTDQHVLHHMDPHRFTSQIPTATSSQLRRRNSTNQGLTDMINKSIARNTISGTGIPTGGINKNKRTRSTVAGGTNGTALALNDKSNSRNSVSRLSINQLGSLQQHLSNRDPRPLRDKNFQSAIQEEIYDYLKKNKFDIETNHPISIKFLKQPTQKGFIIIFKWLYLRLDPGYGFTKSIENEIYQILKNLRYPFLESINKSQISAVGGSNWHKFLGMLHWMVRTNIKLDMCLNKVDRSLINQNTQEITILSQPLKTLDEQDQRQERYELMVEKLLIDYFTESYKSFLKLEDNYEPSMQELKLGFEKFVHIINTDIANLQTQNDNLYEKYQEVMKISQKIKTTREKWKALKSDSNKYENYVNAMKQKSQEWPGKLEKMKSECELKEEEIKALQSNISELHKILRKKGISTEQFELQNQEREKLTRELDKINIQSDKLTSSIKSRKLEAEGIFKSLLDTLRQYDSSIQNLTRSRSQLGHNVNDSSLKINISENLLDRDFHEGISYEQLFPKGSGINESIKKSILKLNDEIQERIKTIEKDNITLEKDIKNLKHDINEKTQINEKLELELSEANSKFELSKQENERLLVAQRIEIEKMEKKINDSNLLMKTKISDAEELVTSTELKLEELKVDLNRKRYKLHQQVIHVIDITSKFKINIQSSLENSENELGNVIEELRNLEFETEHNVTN
Ndc80-7D-3xGFP (P40460, form named): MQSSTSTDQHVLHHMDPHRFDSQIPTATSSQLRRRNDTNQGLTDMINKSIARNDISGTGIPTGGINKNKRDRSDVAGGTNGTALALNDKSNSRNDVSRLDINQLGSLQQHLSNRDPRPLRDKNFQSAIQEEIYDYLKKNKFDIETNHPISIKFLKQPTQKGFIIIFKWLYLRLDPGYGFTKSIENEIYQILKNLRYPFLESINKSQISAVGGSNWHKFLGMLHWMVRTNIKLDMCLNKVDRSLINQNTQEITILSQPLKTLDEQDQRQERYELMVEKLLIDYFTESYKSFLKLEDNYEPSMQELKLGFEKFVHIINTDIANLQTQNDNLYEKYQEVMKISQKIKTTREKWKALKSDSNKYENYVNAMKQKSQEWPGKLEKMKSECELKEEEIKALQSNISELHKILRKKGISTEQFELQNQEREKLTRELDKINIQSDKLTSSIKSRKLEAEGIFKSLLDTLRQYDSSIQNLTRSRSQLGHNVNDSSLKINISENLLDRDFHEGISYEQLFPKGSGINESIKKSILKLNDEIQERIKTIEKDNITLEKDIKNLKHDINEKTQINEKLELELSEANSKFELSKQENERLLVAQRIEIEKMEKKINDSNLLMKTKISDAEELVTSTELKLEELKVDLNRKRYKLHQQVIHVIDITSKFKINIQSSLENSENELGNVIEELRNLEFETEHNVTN

Key:
[1] = molecular target: T1, Dsn1-3xFLAG (budding yeast) (UniProt P40568); test: affinity purification with mass spectrometry; Dsn1-3xFLAG captured from lysate of Dam1-depleted (NAA-treated) yeast on anti-FLAG M2 magnetic beads, buffer H with 150 mM KCl, eluted with FLAG peptide; SDS-PAGE and LC-MS
T1 sequence: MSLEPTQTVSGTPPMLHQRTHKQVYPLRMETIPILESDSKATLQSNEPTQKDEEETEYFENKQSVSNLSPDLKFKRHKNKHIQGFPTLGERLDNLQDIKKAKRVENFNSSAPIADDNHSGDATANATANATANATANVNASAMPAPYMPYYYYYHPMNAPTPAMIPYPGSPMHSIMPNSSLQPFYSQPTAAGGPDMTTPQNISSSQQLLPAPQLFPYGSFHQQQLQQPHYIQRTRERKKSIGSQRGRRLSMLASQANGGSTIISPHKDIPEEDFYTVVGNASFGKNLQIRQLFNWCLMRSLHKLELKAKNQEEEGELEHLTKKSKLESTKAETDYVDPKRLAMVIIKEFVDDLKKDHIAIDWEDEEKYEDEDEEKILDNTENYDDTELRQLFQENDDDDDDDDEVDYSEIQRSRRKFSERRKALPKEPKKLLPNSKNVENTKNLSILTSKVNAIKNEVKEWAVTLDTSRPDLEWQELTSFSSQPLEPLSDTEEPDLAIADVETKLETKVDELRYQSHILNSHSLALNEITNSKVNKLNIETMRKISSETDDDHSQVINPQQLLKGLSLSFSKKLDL

[2] = molecular target: T1, Dsn1-3xFLAG (budding yeast); test: as above; remark: listed apart in the source

binding [1]: binds
Molecule: Ndc80-3xGFP (Ndc80-WT) (from UniProt P40460 1-691)

binding [1]: binds
Molecule: Ndc80-7D-3xGFP (from UniProt P40460 1-691)

binding [2]: binds
B1: Stu2 (protein, UniProt P46675 1-888)
chain: MSGEEEVDYTTLPLEERLTYKLWKARLEAYKELNQLFRNSVGDISRDDNIQIYWRDPTLFAQYITDSNVVAQEQAIVALNSLIDAFASSSLKNAHNITLISTWTPLLVEKGLTSSRATTKTQSMSCILSLCGLDTSITQSVELVIPFFEKKLPKLIAAAANCVYELMAAFGLTNVNVQTFLPELLKHVPQLAGHGDRNVRSQTMNLIVEIYKVTGNNSDLLEEILFKKLKPIQVKDLHKLFAKVGDEPSSSKMLFEWEKRELEKKRSQEEEARKRKSILSNDEGEYQIDKDGDTLMGMETDMPPSKQQSGVQIDTFSMLPEETILDKLPKDFQERITSSKWKDRVEALEEFWDSVLSQTKKLKSTSQNYSNLLGIYGHIIQKDANIQAVALAAQSVELICDKLKTPGFSKDYVSLVFTPLLDRTKEKKPSVIEAIRKALLTICKYYDPLASSGRNEDMLKDILEHMKHKTPQIRMECTQLFNASMKEEKDGYSTLQRYLKDEVVPIVIQIVNDTQPAIRTIGFESFAILIKIFGMNTFVKTLEHLDNLKRKKIEETVKTLPNFSIASGSTHSTIETNKQTGPMENKFLLKKSSVLPSKRVASSPLRNDNKSKVNPIGSVASASKPSMVAANNKSRVLLTSKSLATPKNVVANSTDKNEKLIEEYKYRLQKLQNDEMIWTKERQSLLEKMNNTENYKIEMIKENEMLREQLKEAQSKLNEKNIQLRSKEIDVNKLSDRVLSLENELRNMEIELDRNKKRNDTNLQSMGTISSYSIPSSTVSSNYGVKSLSSALPFKEEEDVRRKEDVNYERRSSESIGDLPHRVNSLNIRPYRKNGTGVSSVSDDLDIDFNDSFASEESYKRAAAVTSTLKARIEKMKAKSRREGTTRT
